Results taken from paper PMC3355152.

Key:
[1] = biological target: T1, SpLsm4N (Schizosaccharomyces pombe) (UniProt O14352); assay: fluorescence anisotropy; conditions: Kd not determinable, very weak binding, up to 100 uM protein; FA: 20 mM Hepes pH 7.5, 100 mM NaCl, 25 C, 0.1 uM RNA; recombinant protein; residues 1-91; protein details: N-terminal His6; label: 5' 6-FAM
T1 sequence (looked up): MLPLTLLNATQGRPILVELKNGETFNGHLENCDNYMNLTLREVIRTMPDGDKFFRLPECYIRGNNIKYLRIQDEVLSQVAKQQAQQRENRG

[2] = biological target: T1, SpLsm4N (Schizosaccharomyces pombe); assay: SPR; conditions: 1 uM protein, weak and transient (abstract: no RNA binding), SPR (Biacore 3000): 20 mM Hepes pH 7.5, 100 mM NaCl, 25 C, recombinant protein, residues 1-91, protein details: N-terminal His6, label: 5' biotin

| Sequence | binding result [1] | binding result [2] |
| --- | --- | --- |
| UUUUUUUUUUUUUUU [U15 (FAM)] | binds more weakly | – |
| UUUUUUUUUUUUUUU [U15 (biotin)] | – | binds more weakly |

Weaker means in comparison with the reference protein, sequence or condition of that experiment. Where a protein sequence is shown, tags need not be part of it.
